Read-outs that look alike come from different tables or passages of the source. Results are given in words; binding and its absence hold for the method and conditions named. In cells and extracts the contact can be indirect. These calls come from enrichment with a bait or labelling near it, and not all partners need be listed. For some assays here: No binding means not detected with the bait. Tags and fused reporters may be left off the sequences shown.
How the values were obtained:
Test in all cases: affinity purification with mass spectrometry; HeLa cells expressing CTDNEP1-3xFLAG or 3xV5-MAN1 against empty vector control cells, triplicates; lysis in 1% DMNG, 50 mM Tris-HCl pH 7.5, 150 mM NaCl; anti-FLAG or anti-V5 magnetic beads; label-free quantification
[1] = target: T1, V5-MAN1 (V5-tagged MAN1) (UniProt Q9Y2U8)
T1 sequence: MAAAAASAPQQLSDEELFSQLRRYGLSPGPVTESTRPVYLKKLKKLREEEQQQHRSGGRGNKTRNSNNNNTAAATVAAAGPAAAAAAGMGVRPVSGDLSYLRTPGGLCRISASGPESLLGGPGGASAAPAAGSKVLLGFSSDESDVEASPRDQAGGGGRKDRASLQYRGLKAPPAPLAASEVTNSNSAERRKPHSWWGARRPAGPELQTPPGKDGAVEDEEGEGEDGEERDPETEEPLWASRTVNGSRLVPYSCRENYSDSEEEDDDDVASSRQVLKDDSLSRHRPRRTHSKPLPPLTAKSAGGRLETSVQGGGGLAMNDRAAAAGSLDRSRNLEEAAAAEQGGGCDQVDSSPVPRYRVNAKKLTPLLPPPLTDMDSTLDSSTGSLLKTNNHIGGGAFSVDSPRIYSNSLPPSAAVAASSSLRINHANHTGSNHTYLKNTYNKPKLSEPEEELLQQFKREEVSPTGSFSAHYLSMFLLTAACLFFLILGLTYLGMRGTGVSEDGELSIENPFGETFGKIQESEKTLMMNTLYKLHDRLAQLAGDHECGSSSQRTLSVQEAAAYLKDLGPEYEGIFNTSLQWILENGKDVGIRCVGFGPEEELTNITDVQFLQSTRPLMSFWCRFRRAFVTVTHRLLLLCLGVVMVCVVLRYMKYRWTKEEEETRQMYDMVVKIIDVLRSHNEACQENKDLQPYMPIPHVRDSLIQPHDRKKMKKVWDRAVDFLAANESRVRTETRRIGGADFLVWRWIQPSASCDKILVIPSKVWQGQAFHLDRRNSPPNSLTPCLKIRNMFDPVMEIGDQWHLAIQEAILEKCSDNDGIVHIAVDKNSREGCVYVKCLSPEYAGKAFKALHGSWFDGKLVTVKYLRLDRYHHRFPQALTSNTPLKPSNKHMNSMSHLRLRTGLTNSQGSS

Amino acid sequences for entries named in this document (tags omitted).
UniProt Q15797: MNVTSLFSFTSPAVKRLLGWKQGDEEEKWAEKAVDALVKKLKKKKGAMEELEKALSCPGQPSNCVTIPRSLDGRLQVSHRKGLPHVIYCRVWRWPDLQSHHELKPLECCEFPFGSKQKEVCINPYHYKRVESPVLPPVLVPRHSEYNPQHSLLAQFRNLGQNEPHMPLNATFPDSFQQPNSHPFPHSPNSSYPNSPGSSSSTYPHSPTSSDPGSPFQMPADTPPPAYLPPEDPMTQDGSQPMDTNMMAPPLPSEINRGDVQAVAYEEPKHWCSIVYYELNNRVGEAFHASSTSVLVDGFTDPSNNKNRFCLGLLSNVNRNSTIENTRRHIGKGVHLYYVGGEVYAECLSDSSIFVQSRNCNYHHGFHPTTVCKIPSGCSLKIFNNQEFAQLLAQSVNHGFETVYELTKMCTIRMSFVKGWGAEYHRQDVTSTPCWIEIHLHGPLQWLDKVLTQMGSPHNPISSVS
UniProt Q99717: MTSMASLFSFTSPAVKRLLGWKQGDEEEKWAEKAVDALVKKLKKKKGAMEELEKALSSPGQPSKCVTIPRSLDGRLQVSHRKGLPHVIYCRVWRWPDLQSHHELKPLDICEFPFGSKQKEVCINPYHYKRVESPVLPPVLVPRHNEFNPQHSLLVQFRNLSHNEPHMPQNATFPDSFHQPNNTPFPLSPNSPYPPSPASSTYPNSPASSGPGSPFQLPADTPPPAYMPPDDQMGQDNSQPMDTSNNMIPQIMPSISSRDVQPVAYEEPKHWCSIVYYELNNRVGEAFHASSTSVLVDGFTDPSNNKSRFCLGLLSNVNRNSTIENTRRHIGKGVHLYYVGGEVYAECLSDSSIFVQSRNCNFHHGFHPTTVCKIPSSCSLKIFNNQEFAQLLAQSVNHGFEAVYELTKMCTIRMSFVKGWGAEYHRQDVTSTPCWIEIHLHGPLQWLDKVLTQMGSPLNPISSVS
UniProt P84022: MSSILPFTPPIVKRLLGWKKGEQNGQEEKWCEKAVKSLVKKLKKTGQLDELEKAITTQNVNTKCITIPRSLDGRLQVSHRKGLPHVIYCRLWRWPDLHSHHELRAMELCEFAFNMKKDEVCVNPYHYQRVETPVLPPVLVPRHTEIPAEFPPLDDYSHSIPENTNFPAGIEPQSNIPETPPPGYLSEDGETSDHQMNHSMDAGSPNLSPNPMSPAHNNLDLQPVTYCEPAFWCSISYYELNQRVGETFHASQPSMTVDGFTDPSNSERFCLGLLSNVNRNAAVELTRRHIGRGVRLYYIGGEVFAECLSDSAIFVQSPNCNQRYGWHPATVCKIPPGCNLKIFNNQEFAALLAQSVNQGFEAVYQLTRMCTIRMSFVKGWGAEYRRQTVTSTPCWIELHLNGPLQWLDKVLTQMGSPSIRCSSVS
UniProt Q13485: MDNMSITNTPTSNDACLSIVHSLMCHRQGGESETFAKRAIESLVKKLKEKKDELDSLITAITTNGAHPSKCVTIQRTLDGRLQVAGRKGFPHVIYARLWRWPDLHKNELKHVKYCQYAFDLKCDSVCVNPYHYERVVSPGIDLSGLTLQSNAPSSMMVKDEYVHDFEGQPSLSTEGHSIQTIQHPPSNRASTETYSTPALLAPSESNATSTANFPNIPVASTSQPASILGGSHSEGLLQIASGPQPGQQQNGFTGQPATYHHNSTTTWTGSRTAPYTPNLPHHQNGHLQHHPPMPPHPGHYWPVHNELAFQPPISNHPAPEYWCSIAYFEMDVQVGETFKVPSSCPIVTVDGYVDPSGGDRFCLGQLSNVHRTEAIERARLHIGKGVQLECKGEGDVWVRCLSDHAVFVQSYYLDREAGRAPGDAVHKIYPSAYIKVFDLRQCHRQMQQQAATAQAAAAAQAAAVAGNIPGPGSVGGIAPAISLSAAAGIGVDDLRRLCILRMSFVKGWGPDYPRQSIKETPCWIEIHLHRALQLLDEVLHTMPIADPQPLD
UniProt O94901: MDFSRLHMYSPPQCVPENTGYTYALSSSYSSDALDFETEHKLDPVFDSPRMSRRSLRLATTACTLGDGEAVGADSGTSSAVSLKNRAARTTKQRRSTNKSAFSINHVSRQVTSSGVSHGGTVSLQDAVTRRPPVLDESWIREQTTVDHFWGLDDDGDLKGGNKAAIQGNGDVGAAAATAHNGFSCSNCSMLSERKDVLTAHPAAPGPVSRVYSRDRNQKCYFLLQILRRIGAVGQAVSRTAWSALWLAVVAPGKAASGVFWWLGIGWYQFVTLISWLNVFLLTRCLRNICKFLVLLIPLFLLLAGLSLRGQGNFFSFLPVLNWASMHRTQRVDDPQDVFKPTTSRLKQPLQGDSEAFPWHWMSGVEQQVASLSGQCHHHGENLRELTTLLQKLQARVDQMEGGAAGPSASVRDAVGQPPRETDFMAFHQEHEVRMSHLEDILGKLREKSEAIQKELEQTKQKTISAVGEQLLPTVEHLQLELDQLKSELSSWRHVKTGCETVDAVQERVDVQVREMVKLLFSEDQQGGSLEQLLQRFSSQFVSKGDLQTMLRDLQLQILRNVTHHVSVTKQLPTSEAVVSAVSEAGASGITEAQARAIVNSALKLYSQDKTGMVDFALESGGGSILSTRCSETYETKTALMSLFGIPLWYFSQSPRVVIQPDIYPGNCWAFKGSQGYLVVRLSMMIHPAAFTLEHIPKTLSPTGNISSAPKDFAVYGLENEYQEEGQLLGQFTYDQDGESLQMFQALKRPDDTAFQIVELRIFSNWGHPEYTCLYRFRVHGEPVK

[2] = target: T2, CTDNEP1-FLAG (CTDNEP1 fused to a triple FLAG epitope tag) (UniProt O95476)
T2 sequence: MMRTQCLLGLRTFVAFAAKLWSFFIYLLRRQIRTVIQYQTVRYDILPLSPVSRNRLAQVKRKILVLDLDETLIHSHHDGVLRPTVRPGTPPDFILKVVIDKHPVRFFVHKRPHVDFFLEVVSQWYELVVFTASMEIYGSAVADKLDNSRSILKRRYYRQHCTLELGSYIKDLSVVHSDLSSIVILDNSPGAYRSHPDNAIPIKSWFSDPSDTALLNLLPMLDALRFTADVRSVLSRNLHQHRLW

[3] = target: T2, CTDNEP1-FLAG (CTDNEP1 fused to a triple FLAG epitope tag); remark: listed apart in the source
[4] = target: T1, V5-MAN1 (V5-tagged MAN1); remark: listed apart in the source

## SMAD1 (from UniProt Q15797 1-465)
[1]
  binding: binds

## SMAD5 (from UniProt Q99717 1-465)
[1]
  binding: binds

## SMAD3 (from UniProt P84022 1-425)
[1]
  binding: binds

## SMAD4 (from UniProt Q13485 1-552)
[1]
  binding: no binding

## SUN1 (from UniProt O94901 1-785)
[2]
  binding: no binding
[1]
  binding: no binding

B1: endogenous NEP1R1 (protein, UniProt Q8N9A8 1-125)
chain: MNSLEQAEDLKAFERRLTEYIHCLQPATGRWRMLLIVVSVCTATGAWNWLIDPETQKVSFFTSLWNHPFFTISCITLIGLFFAGIHKRVVAPSIIAARCRTVLAEYNMSCDDTGKLILKPRPHVQ
[3]
  binding: binds
[4]
  binding: binds
